± gives the standard deviation of the averaged measurements. The entries are a selection whose mix differs from that of the whole data set.
Compound: Nc1ncnc2c1ncn2[C@@H]1O[C@H](COP(=O)(O)OP(=O)(O)NP(=O)(O)O)[C@@H](O)[C@H]1O [adenylyl imidodiphosphate]
Assay: NP40-soluble protein abundance relative to vehicle (solubility fold change) (ratio); higher = more soluble protein in presence of AMP-PNP
Outline: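 In three independent experiments, Jurkat crude lysate made by Dounce homogenisation was treated for 10 min at room temperature and then 3 min at 37 °C with eight concentrations ranging from 0.1 to 10 mM. It was then solubilised with 0.8% NP40 plus benzonase for 60 min at 4 °C and ultracentrifuged. The supernatant was TMT-labelled for LC-MS/MS, and each value is the fold change against the detergent-processed vehicle for the same replicate, using vsn-normalised intensities.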

The chains behind the UniProt entries cited, without tags or fusion partners. Where a name states a change or a piece, a line headed by the entry shows the natural chain unless it says otherwise.
UniProt P46108: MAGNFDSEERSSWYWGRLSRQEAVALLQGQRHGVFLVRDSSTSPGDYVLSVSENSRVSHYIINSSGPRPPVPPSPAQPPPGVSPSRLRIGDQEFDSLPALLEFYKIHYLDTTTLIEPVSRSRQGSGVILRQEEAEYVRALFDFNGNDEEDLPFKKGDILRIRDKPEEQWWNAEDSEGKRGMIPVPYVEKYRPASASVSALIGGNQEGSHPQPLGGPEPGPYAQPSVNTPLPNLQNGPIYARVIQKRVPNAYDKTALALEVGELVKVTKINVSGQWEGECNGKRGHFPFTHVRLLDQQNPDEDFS
UniProt P51948: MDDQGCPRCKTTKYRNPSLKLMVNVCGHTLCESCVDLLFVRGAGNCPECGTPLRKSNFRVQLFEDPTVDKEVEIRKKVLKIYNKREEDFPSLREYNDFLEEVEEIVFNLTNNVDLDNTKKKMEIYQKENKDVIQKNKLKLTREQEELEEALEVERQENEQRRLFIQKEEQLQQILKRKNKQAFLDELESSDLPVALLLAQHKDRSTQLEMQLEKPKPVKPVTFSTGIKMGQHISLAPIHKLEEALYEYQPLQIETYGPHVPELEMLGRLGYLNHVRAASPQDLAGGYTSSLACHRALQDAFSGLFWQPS
UniProt P47756, whole entry: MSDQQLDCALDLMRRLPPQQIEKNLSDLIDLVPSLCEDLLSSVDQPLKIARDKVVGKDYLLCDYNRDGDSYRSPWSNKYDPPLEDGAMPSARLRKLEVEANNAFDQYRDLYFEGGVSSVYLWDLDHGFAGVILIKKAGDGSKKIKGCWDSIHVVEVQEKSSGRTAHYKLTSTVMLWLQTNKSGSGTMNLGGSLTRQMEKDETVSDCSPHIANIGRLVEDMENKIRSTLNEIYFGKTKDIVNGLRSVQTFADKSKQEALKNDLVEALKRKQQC
UniProt P51532, whole entry: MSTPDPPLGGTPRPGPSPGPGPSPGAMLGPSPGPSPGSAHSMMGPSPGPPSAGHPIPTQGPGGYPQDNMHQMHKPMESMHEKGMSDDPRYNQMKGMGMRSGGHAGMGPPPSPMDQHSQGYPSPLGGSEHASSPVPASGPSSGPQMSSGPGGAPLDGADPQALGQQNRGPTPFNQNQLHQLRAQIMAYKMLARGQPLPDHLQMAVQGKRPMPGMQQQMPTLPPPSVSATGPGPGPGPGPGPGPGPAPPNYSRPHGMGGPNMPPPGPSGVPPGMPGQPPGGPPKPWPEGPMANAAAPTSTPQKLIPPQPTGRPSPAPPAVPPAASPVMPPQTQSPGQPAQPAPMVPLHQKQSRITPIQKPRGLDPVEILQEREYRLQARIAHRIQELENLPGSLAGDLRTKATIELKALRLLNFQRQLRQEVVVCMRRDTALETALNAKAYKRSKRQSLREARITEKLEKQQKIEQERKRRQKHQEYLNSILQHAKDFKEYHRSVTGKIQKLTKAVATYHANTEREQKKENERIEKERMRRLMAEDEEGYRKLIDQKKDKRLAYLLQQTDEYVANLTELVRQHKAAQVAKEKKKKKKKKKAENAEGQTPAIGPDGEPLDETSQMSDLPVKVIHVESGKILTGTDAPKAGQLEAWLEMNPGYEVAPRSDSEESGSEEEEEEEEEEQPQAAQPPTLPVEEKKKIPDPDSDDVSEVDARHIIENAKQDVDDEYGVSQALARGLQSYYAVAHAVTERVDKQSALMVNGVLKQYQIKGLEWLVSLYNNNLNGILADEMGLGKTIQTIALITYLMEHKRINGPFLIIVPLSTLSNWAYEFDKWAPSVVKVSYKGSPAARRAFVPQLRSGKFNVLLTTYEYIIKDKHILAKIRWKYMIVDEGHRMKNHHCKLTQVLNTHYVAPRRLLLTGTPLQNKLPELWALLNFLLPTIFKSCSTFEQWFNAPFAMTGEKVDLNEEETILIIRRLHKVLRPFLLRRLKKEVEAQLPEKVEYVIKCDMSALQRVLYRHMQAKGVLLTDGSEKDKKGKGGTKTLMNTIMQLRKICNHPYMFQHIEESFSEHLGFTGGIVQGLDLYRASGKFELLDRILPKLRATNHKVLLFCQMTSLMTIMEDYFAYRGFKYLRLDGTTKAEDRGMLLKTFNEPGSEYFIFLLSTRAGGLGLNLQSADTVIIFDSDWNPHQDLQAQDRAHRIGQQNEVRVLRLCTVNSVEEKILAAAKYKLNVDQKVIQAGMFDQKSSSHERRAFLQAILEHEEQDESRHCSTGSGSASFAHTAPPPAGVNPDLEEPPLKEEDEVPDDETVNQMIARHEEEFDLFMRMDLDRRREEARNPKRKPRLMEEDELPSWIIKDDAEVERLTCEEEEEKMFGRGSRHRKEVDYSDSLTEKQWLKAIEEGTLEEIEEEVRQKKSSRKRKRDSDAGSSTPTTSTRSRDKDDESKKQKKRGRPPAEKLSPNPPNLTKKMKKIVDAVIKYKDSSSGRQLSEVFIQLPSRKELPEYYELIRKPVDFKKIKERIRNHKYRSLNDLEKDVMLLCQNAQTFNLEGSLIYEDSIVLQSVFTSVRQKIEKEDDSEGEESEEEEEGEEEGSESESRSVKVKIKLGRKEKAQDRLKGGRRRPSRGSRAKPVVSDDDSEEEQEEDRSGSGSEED
UniProt P46063: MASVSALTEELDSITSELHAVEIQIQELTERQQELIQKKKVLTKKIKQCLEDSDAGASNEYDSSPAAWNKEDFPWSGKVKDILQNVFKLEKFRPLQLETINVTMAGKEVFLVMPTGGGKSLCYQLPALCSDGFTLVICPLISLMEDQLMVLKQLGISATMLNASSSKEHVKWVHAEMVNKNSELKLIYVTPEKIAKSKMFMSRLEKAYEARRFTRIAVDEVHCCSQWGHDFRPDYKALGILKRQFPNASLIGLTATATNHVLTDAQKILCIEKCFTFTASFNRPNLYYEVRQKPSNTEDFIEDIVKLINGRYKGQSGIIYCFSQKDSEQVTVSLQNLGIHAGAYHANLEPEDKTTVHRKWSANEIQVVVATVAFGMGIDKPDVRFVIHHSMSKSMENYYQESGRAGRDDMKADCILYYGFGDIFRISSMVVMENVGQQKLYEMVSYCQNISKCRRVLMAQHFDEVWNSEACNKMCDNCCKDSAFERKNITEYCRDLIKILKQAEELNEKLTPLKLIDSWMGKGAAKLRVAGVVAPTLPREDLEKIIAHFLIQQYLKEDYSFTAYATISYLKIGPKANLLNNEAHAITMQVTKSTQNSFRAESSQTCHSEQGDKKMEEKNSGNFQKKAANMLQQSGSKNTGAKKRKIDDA
UniProt P51817: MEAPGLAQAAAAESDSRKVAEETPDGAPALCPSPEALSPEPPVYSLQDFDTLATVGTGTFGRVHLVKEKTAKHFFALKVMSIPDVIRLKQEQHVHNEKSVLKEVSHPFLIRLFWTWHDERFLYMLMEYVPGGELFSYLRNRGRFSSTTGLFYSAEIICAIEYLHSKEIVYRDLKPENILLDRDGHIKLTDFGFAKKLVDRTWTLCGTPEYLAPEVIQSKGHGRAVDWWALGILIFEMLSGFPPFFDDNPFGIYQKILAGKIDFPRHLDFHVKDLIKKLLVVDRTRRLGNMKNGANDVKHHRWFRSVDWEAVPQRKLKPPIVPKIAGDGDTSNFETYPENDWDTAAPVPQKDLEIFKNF
UniProt P40337, whole entry, looked up: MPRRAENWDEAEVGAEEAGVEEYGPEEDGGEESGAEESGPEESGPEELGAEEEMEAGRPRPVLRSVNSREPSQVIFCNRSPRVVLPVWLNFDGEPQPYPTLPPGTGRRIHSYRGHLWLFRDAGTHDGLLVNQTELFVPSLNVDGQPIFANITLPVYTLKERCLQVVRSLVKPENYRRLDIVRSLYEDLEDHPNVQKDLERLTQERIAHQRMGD
UniProt P48047: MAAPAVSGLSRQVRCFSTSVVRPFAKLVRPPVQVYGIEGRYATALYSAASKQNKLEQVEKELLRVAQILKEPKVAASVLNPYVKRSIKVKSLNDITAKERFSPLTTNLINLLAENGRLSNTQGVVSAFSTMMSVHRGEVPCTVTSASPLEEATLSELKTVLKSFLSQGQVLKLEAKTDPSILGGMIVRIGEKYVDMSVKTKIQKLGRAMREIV
UniProt P52564: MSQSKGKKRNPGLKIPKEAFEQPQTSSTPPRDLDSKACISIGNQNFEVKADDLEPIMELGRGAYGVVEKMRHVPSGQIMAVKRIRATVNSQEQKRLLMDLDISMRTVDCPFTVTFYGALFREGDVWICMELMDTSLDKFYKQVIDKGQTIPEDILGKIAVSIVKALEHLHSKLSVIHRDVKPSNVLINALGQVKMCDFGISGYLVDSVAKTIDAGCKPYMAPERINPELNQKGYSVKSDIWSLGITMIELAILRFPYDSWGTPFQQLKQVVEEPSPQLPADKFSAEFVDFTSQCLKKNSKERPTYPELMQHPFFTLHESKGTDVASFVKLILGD
UniProt P40222: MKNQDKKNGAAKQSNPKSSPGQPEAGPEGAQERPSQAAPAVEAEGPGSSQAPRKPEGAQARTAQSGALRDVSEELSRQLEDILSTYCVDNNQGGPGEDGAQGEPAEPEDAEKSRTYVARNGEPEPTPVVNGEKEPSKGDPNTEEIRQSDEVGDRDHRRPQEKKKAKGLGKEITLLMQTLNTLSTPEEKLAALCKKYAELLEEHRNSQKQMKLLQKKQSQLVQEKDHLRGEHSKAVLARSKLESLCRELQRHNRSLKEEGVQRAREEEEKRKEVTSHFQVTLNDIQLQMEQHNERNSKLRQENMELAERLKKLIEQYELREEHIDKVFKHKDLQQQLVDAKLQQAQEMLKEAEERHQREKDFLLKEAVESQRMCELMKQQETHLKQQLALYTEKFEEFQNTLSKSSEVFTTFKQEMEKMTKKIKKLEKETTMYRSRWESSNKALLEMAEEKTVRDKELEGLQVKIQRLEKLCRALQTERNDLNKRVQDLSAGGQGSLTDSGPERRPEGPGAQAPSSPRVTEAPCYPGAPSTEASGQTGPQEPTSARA
UniProt P45973, whole entry: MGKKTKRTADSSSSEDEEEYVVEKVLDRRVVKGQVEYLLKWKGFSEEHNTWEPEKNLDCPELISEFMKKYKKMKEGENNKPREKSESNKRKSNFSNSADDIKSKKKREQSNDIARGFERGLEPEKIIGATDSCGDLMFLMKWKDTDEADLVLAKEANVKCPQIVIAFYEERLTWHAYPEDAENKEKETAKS
UniProt P51148: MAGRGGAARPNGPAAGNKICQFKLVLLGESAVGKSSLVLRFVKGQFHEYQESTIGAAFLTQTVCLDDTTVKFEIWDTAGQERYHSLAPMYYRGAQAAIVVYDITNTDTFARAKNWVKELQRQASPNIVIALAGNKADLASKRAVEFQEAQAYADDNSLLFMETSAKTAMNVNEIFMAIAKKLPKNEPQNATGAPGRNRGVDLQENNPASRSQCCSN
UniProt P40855: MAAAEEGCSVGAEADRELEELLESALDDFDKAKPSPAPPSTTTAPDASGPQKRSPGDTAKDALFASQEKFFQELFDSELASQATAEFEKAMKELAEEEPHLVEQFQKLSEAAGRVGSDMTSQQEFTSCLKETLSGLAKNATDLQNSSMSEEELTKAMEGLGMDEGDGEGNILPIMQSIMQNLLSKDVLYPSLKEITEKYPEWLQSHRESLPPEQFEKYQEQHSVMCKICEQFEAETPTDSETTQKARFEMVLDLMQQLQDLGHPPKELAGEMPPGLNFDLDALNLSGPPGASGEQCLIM
UniProt P53367: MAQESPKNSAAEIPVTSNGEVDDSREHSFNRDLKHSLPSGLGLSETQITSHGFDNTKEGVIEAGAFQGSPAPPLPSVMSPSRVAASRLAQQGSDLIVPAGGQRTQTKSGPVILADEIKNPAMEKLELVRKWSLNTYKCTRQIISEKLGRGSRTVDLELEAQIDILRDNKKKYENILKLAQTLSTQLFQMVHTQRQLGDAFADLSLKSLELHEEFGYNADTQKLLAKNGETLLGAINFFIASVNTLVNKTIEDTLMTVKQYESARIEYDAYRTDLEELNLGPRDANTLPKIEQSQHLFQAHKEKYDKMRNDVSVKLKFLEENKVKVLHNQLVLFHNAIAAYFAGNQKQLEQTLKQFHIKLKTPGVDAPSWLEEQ
UniProt P54920: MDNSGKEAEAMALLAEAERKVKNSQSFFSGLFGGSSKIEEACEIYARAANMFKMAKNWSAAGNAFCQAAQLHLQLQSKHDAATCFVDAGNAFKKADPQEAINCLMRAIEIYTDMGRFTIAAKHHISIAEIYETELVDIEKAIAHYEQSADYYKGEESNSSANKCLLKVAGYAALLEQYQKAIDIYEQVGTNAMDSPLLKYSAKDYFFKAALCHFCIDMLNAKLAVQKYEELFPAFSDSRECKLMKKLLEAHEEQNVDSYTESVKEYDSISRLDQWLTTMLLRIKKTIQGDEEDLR
UniProt P52298: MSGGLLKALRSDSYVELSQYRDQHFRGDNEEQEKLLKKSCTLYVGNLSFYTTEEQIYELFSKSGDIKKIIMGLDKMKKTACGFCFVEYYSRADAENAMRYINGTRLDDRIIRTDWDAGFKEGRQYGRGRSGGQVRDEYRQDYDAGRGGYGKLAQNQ
UniProt P51809, whole entry: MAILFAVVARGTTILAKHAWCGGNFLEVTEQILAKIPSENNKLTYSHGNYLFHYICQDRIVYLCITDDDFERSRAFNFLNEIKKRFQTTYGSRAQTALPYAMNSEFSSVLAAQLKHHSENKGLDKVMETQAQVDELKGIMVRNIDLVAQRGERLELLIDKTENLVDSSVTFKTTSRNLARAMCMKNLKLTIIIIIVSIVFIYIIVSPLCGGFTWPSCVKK

Target	NP40-soluble protein abundance (concentration: 1mM)	NP40-soluble protein abundance (concentration: 2mM)	NP40-soluble protein abundance (concentration: 4mM)	NP40-soluble protein abundance (concentration: 6mM)	NP40-soluble protein abundance (concentration: 8mM)	NP40-soluble protein abundance (concentration: 10mM)
UniProt P50851 and related entries	0.983 ± 0.025	0.958 ± 0.012	0.978 ± 0.017	0.936 ± 0.015	0.943 ± 0.015	0.912 ± 0.017
EPS15 (UniProt P42566)	1.03 ± 0.032	1.06 ± 0.032	1.04 ± 0.063	0.992 ± 0.044	0.962 ± 0.057	0.962 ± 0.039
UniProt P46108 and related entries	1.05 ± 0.046	1.071 ± 0.0065	1.07 ± 0.03	1.044 ± 0.0058	1.08 ± 0.044	1.08 ± 0.066
UniProt P51948 and related entries	1.003 ± 0.0072	1.03 ± 0.021	0.987 ± 0.029	1.04 ± 0.036	0.998 ± 0.028	0.9916 ± 0.0053
MCM2 (UniProt P49736)	0.936 ± 0.014	0.874 ± 0.11	0.904 ± 0.038	0.908 ± 0.031	0.908 ± 0.032	0.877 ± 0.061
UniProt P47756-2	1.02 ± 0.02	1.05 ± 0.014	1 ± 0.027	1 ± 0.035	0.975 ± 0.026	1.01 ± 0.043
UniProt P43155 and related entries	0.974 ± 0.057	0.965 ± 0.011	1 ± 0.032	1.01 ± 0.086	1.01 ± 0.061	1.01 ± 0.077
STT3A (UniProt P46977)	0.954 ± 0.022	0.882 ± 0.09	0.933 ± 0.027	0.991 ± 0.053	1.03 ± 0.025	0.974 ± 0.042
RBM34 (UniProt P42696)	1.07 ± 0.069	1.12 ± 0.044	1.15 ± 0.082	1.23 ± 0.12	1.23 ± 0.12	1.36 ± 0.16
CAPZA2 (UniProt P47755)	1.01 ± 0.013	0.966 ± 0.02	0.9851 ± 0.0046	0.9821 ± 0.0042	1.004 ± 0.0091	0.986 ± 0.017
UniProt P40925 and related entries	0.964 ± 0.02	0.9471 ± 0.0058	0.914 ± 0.027	0.982 ± 0.029	0.961 ± 0.029	0.972 ± 0.027
UniProt P46976 and related entries	1 ± 0.058	1.04 ± 0.073	1 ± 0.068	1.01 ± 0.063	1 ± 0.06	1.04 ± 0.12
UniProt P53621 and related entries	0.9618 ± 0.0042	0.882 ± 0.097	0.93 ± 0.036	0.9305 ± 0.0074	0.965 ± 0.045	0.918 ± 0.045
UniProt P50570-4|P50570 and related entries	0.993 ± 0.019	0.932 ± 0.014	0.975 ± 0.038	0.968 ± 0.052	0.988 ± 0.047	0.971 ± 0.054
HDGF (UniProt P51858)	1 ± 0.028	1.08 ± 0.08	0.959 ± 0.069	0.995 ± 0.025	0.943 ± 0.04	0.977 ± 0.085
UniProt P51532 and related entries	1.02 ± 0.043	1.08 ± 0.052	1.04 ± 0.037	1.09 ± 0.068	1.06 ± 0.061	1.14 ± 0.13
UniProt P46100 and related entries	1.03 ± 0.011	1.06 ± 0.038	1.049 ± 0.0066	1.05 ± 0.065	1.06 ± 0.062	1.1 ± 0.047
UniProt P51795-2	0.957 ± 0.027	0.954 ± 0.021	0.9701 ± 0.0056	0.93485 ± 0.00084	0.9674 ± 0.0051	0.938 ± 0.0099
RPL5 (UniProt P46777)	1 ± 0.04	0.987 ± 0.032	0.955 ± 0.057	0.953 ± 0.068	0.898 ± 0.064	0.973 ± 0.13
UniProt P49407-2|P49407	1.04 ± 0.022	1.04 ± 0.015	1.05 ± 0.034	1.08 ± 0.078	1.11 ± 0.038	1.11 ± 0.022

Target	NP40-soluble protein abundance (concentration: 1mM)	NP40-soluble protein abundance (concentration: 2mM)	NP40-soluble protein abundance (concentration: 4mM)	NP40-soluble protein abundance (concentration: 6mM)	NP40-soluble protein abundance (concentration: 8mM)	NP40-soluble protein abundance (concentration: 10mM)
RECQL (UniProt P46063)	0.972 ± 0.018	0.958 ± 0.0099	0.98 ± 0.012	1.01 ± 0.067	1.03 ± 0.045	0.977 ± 0.023
UniProt P45984 and related entries	1.06 ± 0.032	1 ± 0.074	1.02 ± 0.056	0.988 ± 0.024	1.01 ± 0.072	0.982 ± 0.069
DAP3 (UniProt P51398)	1.01 ± 0.084	0.998 ± 0.092	1.01 ± 0.12	0.972 ± 0.11	0.982 ± 0.082	0.997 ± 0.12
UniProt P49116-2|P49116	0.976 ± 0.026	1 ± 0.019	0.974 ± 0.029	1.02 ± 0.021	0.958 ± 0.02	1.02 ± 0.039
PRCP (UniProt P42785)	0.988 ± 0.068	1.03 ± 0.12	1.01 ± 0.12	1.15 ± 0.15	1.14 ± 0.099	1.17 ± 0.17
PRKX (UniProt P51817)	0.931 ± 0.029	0.959 ± 0.055	1.02 ± 0.056	0.947 ± 0.027	0.971 ± 0.0095	0.955 ± 0.036
UniProt P40337 and related entries	0.981 ± 0.036	0.99 ± 0.021	0.997 ± 0.022	0.973 ± 0.055	1.02 ± 0.053	0.961 ± 0.073
RAD23B (UniProt P54727)	0.956 ± 0.049	1.01 ± 0.072	0.91 ± 0.032	0.896 ± 0.027	0.863 ± 0.039	0.882 ± 0.051
UniProt P45880 and related entries	1 ± 0.045	0.959 ± 0.017	0.984 ± 0.046	1.04 ± 0.075	1.07 ± 0.039	1.02 ± 0.045
NCKAP1L (UniProt P55160)	0.975 ± 0.021	0.905 ± 0.085	0.955 ± 0.027	0.955 ± 0.072	0.975 ± 0.046	0.914 ± 0.037
UniProt P48047	0.907 ± 0.042	0.912 ± 0.041	0.896 ± 0.051	0.96 ± 0.087	0.974 ± 0.045	0.938 ± 0.1
PSMB10 (UniProt P40306)	0.937 ± 0.034	0.894 ± 0.036	0.915 ± 0.046	0.949 ± 0.043	0.933 ± 0.058	0.899 ± 0.046
MTHFS (UniProt P49914)	1 ± 0.037	1.01 ± 0.021	1.01 ± 0.051	1.03 ± 0.031	1.03 ± 0.057	1.06 ± 0.022
SERPINB8 (UniProt P50452)	1.02 ± 0.013	0.963 ± 0.063	1 ± 0.037	0.987 ± 0.0084	1 ± 0.022	0.982 ± 0.033
UniProt P52564	1.03 ± 0.06	1.01 ± 0.035	1.02 ± 0.037	0.971 ± 0.011	0.951 ± 0.036	0.936 ± 0.045
UniProt P43034 and related entries	1 ± 0.06	0.977 ± 0.037	1 ± 0.033	1.05 ± 0.048	1.07 ± 0.034	1.04 ± 0.03
TXLNA (UniProt P40222)	1.04 ± 0.059	1.17 ± 0.13	1.08 ± 0.14	1.21 ± 0.15	1.35 ± 0.046	1.2 ± 0.2
CBX5 (UniProt P45973)	1.08 ± 0.025	1.18 ± 0.085	1.18 ± 0.037	1.21 ± 0.056	1.24 ± 0.054	1.32 ± 0.03
UniProt P51148 and related entries	0.971 ± 0.058	0.9061 ± 0.0077	0.971 ± 0.047	1.05 ± 0.095	1.08 ± 0.12	1.03 ± 0.069
UniProt P40855 and related entries	1.04 ± 0.061	1.09 ± 0.1	1.04 ± 0.03	0.961 ± 0.077	0.901 ± 0.027	0.976 ± 0.067

Whole records, quoted from the list:
UniProt P51148 and related entries is listed as NP40-soluble protein abundance (concentration: 1mM): 0.971 ± 0.058; NP40-soluble protein abundance (concentration: 2mM): 0.9061 ± 0.0077; NP40-soluble protein abundance (concentration: 4mM): 0.971 ± 0.047; NP40-soluble protein abundance (concentration: 6mM): 1.05 ± 0.095; NP40-soluble protein abundance (concentration: 8mM): 1.08 ± 0.12; NP40-soluble protein abundance (concentration: 10mM): 1.03 ± 0.069
DAP3 (UniProt P51398) is listed as NP40-soluble protein abundance (concentration: 1mM): 1.01 ± 0.084; NP40-soluble protein abundance (concentration: 2mM): 0.998 ± 0.092; NP40-soluble protein abundance (concentration: 4mM): 1.01 ± 0.12; NP40-soluble protein abundance (concentration: 6mM): 0.972 ± 0.11; NP40-soluble protein abundance (concentration: 8mM): 0.982 ± 0.082; NP40-soluble protein abundance (concentration: 10mM): 0.997 ± 0.12
MTHFS (UniProt P49914) is listed as NP40-soluble protein abundance (concentration: 1mM): 1 ± 0.037; NP40-soluble protein abundance (concentration: 2mM): 1.01 ± 0.021; NP40-soluble protein abundance (concentration: 4mM): 1.01 ± 0.051; NP40-soluble protein abundance (concentration: 6mM): 1.03 ± 0.031; NP40-soluble protein abundance (concentration: 8mM): 1.03 ± 0.057; NP40-soluble protein abundance (concentration: 10mM): 1.06 ± 0.022
NCKAP1L (UniProt P55160) is listed as NP40-soluble protein abundance (concentration: 1mM): 0.975 ± 0.021; NP40-soluble protein abundance (concentration: 2mM): 0.905 ± 0.085; NP40-soluble protein abundance (concentration: 4mM): 0.955 ± 0.027; NP40-soluble protein abundance (concentration: 6mM): 0.955 ± 0.072; NP40-soluble protein abundance (concentration: 8mM): 0.975 ± 0.046; NP40-soluble protein abundance (concentration: 10mM): 0.914 ± 0.037

Additional entries follow.

Target	NP40-soluble protein abundance (concentration: 1mM)	NP40-soluble protein abundance (concentration: 2mM)	NP40-soluble protein abundance (concentration: 4mM)	NP40-soluble protein abundance (concentration: 6mM)	NP40-soluble protein abundance (concentration: 8mM)	NP40-soluble protein abundance (concentration: 10mM)
UniProt P54687 and related entries	0.984 ± 0.017	0.942 ± 0.055	0.94 ± 0.017	0.911 ± 0.013	0.918 ± 0.019	0.907 ± 0.046
LRPPRC (UniProt P42704)	0.945 ± 0.013	0.883 ± 0.068	0.941 ± 0.022	0.919 ± 0.016	0.9504 ± 0.0022	0.8966 ± 0.0071
UniProt P53367 and related entries	1 ± 0.054	1 ± 0.039	0.993 ± 0.069	1.02 ± 0.052	0.968 ± 0.068	0.943 ± 0.067
THOP1 (UniProt P52888)	0.938 ± 0.036	0.884 ± 0.095	0.924 ± 0.021	0.944 ± 0.034	0.942 ± 0.041	0.921 ± 0.028
METAP1 (UniProt P53582)	1.05 ± 0.046	1.06 ± 0.081	1.16 ± 0.071	1.31 ± 0.046	1.37 ± 0.061	1.38 ± 0.074
GCLM (UniProt P48507)	1.03 ± 0.017	1.018 ± 0.0095	1 ± 0.022	0.999 ± 0.025	1.01 ± 0.017	0.984 ± 0.014
NAPA (UniProt P54920)	0.986 ± 0.012	1 ± 0.051	0.975 ± 0.044	1 ± 0.037	1.001 ± 0.0071	0.959 ± 0.075
NAMPT (UniProt P43490)	0.959 ± 0.025	0.903 ± 0.097	0.9559 ± 0.0052	0.966 ± 0.018	0.971 ± 0.01	0.936 ± 0.013
NCBP2 (UniProt P52298)	1.02 ± 0.043	1.03 ± 0.049	1.04 ± 0.051	1.07 ± 0.014	1.05 ± 0.037	1.1 ± 0.019
UniProt P55211 and related entries	0.981 ± 0.043	0.991 ± 0.029	0.997 ± 0.034	1.01 ± 0.032	1.01 ± 0.045	0.98 ± 0.021
UniProt P51809 and related entries	0.982 ± 0.023	0.941 ± 0.02	1.04 ± 0.091	1.11 ± 0.07	1.1 ± 0.054	1.12 ± 0.1
NDUFA8 (UniProt P51970)	0.984 ± 0.063	1.009 ± 0.006	0.95 ± 0.04	0.943 ± 0.031	0.958 ± 0.02	0.92 ± 0.055
UniProt P53396 and related entries	0.9442 ± 0.0094	0.854 ± 0.1	0.916 ± 0.042	0.923 ± 0.022	0.946 ± 0.04	0.895 ± 0.073
USP14 (UniProt P54578)	1 ± 0.011	0.965 ± 0.027	0.972 ± 0.03	1.02 ± 0.022	1.02 ± 0.012	1.02 ± 0.043
UniProt P51648 and related entries	0.985 ± 0.04	0.889 ± 0.089	0.975 ± 0.022	0.983 ± 0.026	1.01 ± 0.027	0.962 ± 0.033
EMD (UniProt P50402)	0.968 ± 0.023	0.989 ± 0.018	0.985 ± 0.05	0.971 ± 0.048	0.982 ± 0.072	0.967 ± 0.061
UniProt P55327-2|P55327-4	0.887 ± 0.017	0.91 ± 0.054	0.915 ± 0.048	0.93 ± 0.024	0.88 ± 0.069	0.845 ± 0.087
CDC34 (UniProt P49427)	1.04 ± 0.059	1.07 ± 0.037	1.06 ± 0.057	1.04 ± 0.039	1 ± 0.043	1.06 ± 0.017
YARS (UniProt P54577)	1.011 ± 0.0097	1.01 ± 0.023	0.981 ± 0.023	1.02 ± 0.015	0.991 ± 0.029	1 ± 0.061
SLC1A4 (UniProt P43007)	1.029 ± 0.0013	1.05 ± 0.024	1.017 ± 0.0062	0.998 ± 0.041	0.996 ± 0.023	0.979 ± 0.018
